The target in assay [1] is T1, SFB-tagged OTUD6A, full-length wild type (aa 1-288) (human) (UniProt Q7L8S5).
T1 sequence: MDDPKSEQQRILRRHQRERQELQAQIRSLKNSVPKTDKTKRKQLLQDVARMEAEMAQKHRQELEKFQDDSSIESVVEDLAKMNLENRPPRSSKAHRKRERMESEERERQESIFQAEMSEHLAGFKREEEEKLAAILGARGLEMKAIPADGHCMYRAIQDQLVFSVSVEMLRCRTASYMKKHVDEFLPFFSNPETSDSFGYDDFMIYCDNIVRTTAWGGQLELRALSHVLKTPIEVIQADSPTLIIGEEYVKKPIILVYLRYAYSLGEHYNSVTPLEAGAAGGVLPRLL
The experiment in a line: pull-down; SFB-tagged DUB (or OTUD6A full length or truncated) and MYC-tagged Aurora-A (full length or truncated) co-transfected into HEK293T; lysis in NETN buffer; DUB pulled down with S-protein beads at 4 °C overnight; Aurora-A blotted with MYC antibody.

In assay [2] the target is T2, MYC-tagged Aurora kinase A, full-length wild type (aa 1-403) (human) (UniProt O14965).
T2 sequence: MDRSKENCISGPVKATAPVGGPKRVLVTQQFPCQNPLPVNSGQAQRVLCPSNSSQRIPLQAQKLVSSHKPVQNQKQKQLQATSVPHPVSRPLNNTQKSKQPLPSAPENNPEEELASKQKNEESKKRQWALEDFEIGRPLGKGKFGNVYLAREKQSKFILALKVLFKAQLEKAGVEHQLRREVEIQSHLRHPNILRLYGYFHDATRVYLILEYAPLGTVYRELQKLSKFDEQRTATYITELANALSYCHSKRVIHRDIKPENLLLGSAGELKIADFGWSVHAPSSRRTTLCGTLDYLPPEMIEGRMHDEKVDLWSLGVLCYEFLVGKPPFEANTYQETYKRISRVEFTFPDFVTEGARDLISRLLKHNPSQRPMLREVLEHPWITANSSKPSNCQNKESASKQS
The experiment in a line: co-IP; reverse co-immunoprecipitation: MYC-tagged Aurora-A pulled down with MYC-beads from lysate of co-transfected HEK293T; SFB-tagged OTUD6A blotted with FLAG antibody.

The target of another assay is T3, SFB-tagged OTUD1 (human) (UniProt Q5VV17).
T3 sequence: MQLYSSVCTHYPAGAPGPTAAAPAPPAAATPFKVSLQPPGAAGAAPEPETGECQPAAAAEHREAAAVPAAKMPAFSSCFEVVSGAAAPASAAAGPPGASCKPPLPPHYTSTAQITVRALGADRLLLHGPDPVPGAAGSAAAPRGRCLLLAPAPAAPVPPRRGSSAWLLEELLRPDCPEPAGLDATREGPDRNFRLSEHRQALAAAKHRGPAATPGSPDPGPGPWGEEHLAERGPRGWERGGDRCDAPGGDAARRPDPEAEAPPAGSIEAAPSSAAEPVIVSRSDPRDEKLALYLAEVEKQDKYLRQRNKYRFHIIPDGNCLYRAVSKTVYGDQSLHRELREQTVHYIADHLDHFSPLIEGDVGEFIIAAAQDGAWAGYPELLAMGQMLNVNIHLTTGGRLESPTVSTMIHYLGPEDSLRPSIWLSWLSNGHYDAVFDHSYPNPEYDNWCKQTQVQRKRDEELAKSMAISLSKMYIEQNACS
The experiment in a line: pull-down; SFB-tagged OTUD6A, OTUD1 or GFP control transfected into HEK293T; pulled down with S-protein beads; associated endogenous Aurora-A blotted with Aurora-A-specific antibody.

Assay [3] has as its target T1, SFB-tagged OTUD6A, full-length wild type (aa 1-288) (human). The assay is described as above.
Assay [4] addresses SFB-tagged USP7 (human), Q93009. The experiment in a line: pull-down; SFB-tagged DUB (or OTUD6A full length or truncated) and MYC-tagged Aurora-A (full length or truncated) co-transfected into HEK293T; lysis in NETN buffer; DUB pulled down with S-protein beads at 4 °C overnight; Aurora-A blotted with MYC antibody. To be noted: remark: other sources report otherwise.

No constants are given. Whether binding was seen depends on the method and setting. In cells and extracts the contact can be indirect. Some binding calls cover weakened binding; strength is not graded here. Sequences can lack the tags named with a protein.

For 6 molecules, binding results are on record in publication PMC7919836.

B1: MYC-tagged Aurora-A^ΔCt (C-terminal-deleted, aa 1-383) (domain or fragment, UniProt O14965 1-383)
chain: MDRSKENCISGPVKATAPVGGPKRVLVTQQFPCQNPLPVNSGQAQRVLCPSNSSQRIPLQAQKLVSSHKPVQNQKQKQLQATSVPHPVSRPLNNTQKSKQPLPSAPENNPEEELASKQKNEESKKRQWALEDFEIGRPLGKGKFGNVYLAREKQSKFILALKVLFKAQLEKAGVEHQLRREVEIQSHLRHPNILRLYGYFHDATRVYLILEYAPLGTVYRELQKLSKFDEQRTATYITELANALSYCHSKRVIHRDIKPENLLLGSAGELKIADFGWSVHAPSSRRTTLCGTLDYLPPEMIEGRMHDEKVDLWSLGVLCYEFLVGKPPFEANTYQETYKRISRVEFTFPDFVTEGARDLISRLLKHNPSQRPMLREVLEHPWI
For the molecule B1, the binding entry in assay [1] is listed as “binds”.

B2: SFB-tagged OTUD6A, full-length wild type (aa 1-288) (enzyme, UniProt Q7L8S5 1-288)
chain: T1 sequence
In the case of B2, the binding entry in assay [2] is listed as “binds”.

B3: MYC-tagged Aurora-A^ΔKD (kinase-domain-deleted, aa 1-132 & 384-403) (domain or fragment, UniProt O14965)
chain: MDRSKENCISGPVKATAPVGGPKRVLVTQQFPCQNPLPVNSGQAQRVLCPSNSSQRIPLQAQKLVSSHKPVQNQKQKQLQATSVPHPVSRPLNNTQKSKQPLPSAPENNPEEELASKQKNEESKKRQWALEDTANSSKPSNCQNKESASKQS
Consider B3, for which, in assay [1], the binding result is recorded as “no binding”.

B4: MYC-tagged Aurora-A^Nt (N-terminal only, aa 1-132) (domain or fragment, UniProt O14965 1-132)
chain: MDRSKENCISGPVKATAPVGGPKRVLVTQQFPCQNPLPVNSGQAQRVLCPSNSSQRIPLQAQKLVSSHKPVQNQKQKQLQATSVPHPVSRPLNNTQKSKQPLPSAPENNPEEELASKQKNEESKKRQWALED
Take B4: the binding entry in assay [1] was “no binding”.

B5: endogenous Aurora-A (protein, UniProt O14965 1-403)
chain: T2 sequence
Take B5: the binding result with SFB-tagged OTUD1 (human) is listed as “binds weakly”; in assay [3], “binds”.

B6: MYC-tagged Aurora kinase A, full-length wild type (aa 1-403), O14965 1-403 (protein)
chain: T2 sequence
For the molecule B6, in assay [4], the binding entry is reported as “binds”.
